# The supplement of paper PMC10849652
# By UniProt entry, the sequences of proteins in these tests, tags left out. Where a name states a change or a piece, a line headed by the entry shows the natural chain unless it says otherwise.
# UniProt O43805: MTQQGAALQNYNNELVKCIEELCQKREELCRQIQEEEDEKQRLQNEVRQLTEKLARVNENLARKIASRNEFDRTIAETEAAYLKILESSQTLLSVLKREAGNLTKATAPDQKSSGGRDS
# UniProt Q9HBM1: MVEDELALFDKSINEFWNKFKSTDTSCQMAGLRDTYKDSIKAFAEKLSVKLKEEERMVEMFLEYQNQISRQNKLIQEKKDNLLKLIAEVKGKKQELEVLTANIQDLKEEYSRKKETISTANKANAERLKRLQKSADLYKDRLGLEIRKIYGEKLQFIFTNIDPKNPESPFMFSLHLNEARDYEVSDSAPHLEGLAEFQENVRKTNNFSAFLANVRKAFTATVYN
# UniProt Q9UQ35: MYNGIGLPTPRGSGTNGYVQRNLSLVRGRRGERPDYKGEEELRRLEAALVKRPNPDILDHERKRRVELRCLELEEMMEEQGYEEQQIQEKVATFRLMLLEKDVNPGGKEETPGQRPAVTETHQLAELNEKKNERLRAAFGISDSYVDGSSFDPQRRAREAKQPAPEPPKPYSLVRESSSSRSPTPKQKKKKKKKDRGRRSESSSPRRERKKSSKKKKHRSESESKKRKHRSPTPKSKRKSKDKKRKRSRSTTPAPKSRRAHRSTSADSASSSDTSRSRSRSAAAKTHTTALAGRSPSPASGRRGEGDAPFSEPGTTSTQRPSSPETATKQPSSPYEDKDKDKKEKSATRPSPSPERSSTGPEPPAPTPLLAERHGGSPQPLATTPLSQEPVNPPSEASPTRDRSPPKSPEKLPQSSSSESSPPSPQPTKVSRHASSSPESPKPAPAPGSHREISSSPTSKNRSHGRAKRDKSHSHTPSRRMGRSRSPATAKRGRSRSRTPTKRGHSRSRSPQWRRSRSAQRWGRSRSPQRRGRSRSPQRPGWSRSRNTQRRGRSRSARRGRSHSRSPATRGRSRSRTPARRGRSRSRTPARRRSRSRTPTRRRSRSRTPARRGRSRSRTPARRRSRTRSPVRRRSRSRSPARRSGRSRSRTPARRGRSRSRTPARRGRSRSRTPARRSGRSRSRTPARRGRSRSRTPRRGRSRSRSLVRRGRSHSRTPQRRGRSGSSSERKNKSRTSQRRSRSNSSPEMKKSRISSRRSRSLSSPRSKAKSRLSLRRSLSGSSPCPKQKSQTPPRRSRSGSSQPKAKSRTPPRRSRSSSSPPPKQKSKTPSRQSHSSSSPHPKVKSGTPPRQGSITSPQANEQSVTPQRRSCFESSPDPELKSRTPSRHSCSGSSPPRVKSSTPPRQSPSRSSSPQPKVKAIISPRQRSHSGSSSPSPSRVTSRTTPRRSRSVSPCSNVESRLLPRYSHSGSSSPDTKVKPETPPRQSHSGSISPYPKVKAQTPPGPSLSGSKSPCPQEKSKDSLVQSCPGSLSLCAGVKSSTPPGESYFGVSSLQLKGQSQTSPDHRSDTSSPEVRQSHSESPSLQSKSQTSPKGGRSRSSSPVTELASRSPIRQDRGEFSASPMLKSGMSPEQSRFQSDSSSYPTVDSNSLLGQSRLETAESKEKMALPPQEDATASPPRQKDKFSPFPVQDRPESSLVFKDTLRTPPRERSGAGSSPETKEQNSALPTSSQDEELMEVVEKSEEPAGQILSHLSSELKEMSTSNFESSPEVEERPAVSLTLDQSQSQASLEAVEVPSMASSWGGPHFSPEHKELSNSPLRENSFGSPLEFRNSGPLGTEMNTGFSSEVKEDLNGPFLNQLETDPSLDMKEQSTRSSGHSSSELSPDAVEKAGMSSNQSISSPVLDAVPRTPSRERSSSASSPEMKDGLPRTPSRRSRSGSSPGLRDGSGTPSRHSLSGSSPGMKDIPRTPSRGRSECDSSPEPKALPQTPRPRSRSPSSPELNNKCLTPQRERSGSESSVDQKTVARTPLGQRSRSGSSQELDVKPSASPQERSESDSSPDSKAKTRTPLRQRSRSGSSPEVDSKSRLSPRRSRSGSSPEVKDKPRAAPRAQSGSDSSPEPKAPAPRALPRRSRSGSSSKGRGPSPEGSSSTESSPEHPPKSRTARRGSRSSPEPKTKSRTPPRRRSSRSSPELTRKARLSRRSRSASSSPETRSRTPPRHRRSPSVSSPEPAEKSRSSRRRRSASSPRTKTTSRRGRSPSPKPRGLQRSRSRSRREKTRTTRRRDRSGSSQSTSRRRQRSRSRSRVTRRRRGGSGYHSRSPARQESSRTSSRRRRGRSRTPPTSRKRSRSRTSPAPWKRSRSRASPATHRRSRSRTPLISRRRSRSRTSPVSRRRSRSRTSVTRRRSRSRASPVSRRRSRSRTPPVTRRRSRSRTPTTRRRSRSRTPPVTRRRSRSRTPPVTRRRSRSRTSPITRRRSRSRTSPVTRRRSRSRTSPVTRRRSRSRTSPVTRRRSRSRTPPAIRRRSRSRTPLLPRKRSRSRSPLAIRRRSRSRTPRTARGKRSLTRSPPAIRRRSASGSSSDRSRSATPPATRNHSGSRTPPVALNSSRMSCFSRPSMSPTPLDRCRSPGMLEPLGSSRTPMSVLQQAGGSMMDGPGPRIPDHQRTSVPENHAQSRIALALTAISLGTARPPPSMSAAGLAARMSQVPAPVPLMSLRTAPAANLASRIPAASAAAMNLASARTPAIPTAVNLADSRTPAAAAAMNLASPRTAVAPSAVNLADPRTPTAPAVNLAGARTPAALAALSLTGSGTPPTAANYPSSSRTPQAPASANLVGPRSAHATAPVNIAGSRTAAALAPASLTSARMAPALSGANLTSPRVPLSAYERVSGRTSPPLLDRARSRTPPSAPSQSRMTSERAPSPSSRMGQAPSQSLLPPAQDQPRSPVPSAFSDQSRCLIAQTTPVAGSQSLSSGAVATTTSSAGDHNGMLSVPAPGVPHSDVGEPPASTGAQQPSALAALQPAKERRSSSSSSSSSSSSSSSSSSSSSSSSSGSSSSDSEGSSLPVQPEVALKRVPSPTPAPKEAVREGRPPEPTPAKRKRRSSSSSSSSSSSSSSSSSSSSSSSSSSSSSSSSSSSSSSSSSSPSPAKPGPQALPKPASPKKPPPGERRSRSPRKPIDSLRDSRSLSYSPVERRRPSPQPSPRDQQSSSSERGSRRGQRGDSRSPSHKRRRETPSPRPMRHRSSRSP
# UniProt Q9Y657, whole entry, looked up: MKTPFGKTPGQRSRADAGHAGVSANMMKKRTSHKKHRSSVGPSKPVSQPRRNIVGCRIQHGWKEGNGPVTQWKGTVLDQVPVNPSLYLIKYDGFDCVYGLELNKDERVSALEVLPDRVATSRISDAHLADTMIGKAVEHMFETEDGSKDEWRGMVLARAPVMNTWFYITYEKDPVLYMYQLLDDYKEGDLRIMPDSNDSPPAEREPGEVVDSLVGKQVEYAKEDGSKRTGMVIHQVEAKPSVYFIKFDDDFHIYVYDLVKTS
# UniProt Q8WXA9: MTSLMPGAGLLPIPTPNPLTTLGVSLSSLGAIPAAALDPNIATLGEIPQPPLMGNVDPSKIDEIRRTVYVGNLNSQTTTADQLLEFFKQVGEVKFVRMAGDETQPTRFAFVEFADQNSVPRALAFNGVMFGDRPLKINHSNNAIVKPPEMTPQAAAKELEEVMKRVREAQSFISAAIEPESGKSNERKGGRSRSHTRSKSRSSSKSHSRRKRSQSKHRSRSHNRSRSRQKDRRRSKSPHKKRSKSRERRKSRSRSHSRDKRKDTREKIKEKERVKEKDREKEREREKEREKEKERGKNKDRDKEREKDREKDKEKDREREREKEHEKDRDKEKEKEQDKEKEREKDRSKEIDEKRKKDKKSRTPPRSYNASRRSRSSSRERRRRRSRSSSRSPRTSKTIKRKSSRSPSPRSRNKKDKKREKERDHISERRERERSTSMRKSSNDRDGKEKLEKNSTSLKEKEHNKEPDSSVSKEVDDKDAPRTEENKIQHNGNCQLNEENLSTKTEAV
# UniProt Q13586, whole entry, looked up: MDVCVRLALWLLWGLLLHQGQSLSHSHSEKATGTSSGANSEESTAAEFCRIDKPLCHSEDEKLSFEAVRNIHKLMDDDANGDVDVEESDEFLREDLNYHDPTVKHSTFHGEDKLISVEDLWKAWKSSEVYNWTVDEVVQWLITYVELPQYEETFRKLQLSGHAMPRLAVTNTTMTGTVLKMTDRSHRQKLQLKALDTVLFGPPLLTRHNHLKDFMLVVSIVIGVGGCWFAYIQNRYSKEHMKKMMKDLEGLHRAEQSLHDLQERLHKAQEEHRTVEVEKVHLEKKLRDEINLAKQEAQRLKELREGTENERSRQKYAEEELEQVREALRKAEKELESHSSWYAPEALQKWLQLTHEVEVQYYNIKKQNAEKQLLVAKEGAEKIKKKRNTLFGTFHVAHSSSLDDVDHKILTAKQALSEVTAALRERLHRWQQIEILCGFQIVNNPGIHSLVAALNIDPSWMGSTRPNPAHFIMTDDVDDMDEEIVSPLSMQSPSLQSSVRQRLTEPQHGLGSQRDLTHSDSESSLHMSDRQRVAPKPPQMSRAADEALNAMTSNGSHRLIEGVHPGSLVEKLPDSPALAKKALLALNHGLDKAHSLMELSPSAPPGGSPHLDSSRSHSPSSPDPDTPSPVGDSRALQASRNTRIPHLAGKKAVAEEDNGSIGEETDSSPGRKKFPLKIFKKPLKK
# UniProt Q9NQZ5: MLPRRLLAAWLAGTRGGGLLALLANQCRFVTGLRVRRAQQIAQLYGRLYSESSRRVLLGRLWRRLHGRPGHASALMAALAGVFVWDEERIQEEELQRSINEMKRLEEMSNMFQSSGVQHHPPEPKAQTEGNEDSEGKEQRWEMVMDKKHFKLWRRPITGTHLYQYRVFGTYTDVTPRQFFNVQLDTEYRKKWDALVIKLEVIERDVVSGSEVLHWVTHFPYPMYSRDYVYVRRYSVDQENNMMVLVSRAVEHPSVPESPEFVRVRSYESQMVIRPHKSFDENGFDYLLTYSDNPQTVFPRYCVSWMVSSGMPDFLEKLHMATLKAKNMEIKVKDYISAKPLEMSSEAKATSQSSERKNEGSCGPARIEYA
# UniProt P61009: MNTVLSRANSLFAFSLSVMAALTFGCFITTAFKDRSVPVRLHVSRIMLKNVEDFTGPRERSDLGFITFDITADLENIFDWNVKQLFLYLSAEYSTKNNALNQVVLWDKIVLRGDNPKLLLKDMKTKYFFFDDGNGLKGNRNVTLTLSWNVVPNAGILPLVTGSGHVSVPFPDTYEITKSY
# UniProt Q9NYA1, whole entry, looked up: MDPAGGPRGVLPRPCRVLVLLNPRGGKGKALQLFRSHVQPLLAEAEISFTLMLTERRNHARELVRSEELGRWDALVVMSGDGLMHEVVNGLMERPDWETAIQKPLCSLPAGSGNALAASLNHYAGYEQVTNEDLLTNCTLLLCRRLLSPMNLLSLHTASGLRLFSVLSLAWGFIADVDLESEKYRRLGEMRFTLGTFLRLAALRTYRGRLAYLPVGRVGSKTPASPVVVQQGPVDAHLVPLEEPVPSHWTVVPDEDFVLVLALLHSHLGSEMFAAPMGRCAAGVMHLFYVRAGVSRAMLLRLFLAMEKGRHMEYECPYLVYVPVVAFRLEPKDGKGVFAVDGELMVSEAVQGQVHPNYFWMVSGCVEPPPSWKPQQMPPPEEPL
# UniProt P40763, whole entry, looked up: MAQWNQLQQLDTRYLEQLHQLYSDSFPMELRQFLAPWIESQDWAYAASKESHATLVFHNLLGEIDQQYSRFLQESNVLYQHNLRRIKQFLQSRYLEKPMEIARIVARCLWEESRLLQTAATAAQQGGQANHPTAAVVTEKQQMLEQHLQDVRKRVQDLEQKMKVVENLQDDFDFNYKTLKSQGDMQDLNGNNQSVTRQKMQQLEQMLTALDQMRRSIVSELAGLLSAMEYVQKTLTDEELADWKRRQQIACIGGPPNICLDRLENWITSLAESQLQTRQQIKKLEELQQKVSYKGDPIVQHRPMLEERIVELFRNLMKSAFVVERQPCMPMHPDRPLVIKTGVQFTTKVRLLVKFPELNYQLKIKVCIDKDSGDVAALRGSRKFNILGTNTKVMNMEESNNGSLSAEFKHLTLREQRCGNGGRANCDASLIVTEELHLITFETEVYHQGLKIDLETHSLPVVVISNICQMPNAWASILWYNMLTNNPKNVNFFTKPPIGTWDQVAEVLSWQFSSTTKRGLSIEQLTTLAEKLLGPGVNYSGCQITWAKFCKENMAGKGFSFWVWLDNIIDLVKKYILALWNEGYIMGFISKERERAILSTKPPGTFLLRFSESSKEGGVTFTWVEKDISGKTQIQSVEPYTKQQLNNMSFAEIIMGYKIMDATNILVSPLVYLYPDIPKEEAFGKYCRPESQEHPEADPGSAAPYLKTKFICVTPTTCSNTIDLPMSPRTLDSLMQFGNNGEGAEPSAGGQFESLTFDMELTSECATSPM
# UniProt Q13247: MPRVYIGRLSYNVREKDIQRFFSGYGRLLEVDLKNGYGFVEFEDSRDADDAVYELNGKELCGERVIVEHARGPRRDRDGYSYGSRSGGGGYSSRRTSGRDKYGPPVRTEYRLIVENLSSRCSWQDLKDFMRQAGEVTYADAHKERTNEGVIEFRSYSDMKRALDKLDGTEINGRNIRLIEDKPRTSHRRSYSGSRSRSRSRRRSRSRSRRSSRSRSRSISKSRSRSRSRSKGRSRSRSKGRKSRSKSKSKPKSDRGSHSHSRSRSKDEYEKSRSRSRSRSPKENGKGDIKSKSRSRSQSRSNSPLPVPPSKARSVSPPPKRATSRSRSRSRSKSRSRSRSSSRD
# Some of the results follow.
# Legend:
# Experiment in all cases: log2 fold change, soluble protein after heating vs DMSO (PISA); higher = thermal stabilisation; K562 lysate, 10 uM; active = over 0.2 and 3.5 SD of the protein, either way, in both replicates (recomputed)
# alvocidib = compound: CN1CC[C@H](c2c(O)cc(O)c3c(=O)cc(-c4ccccc4Cl)oc23)[C@H](O)C1 [alvocidib]
# How it was run: (§1)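 Quantification was by TMTpro 16plex LC-MS/MS with equalised channel sums, applied to the supernatant after 21,000xg for 90 min. Samples were crude K562 extract at 1 mg/mL protein in PBS pH 7.4 with 1 mM MgCl2, treated with 10 μM compound for 30 min, heated for 3 min across 48°C-58°C, pooled and brought to 0.5% NP-40 at 4°C. Values are log-two fold changes in thermal stability relative to solvent controls, from duplicates.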
# Tubastatin A = compound: CN1CCc2c(c3ccccc3n2Cc2ccc(C(=O)NO)cc2)C1 [Tubastatin A]
# How it was run: as §1
# [1] = compound: CNC(=O)C1=CC=CC=C1NC2=NC(=NC=C2Cl)NC3=C(C=C(C=C3)N4CCOCC4)OC
# How it was run: as §1
# defactinib = compound: CNC(=O)c1ccc(Nc2ncc(C(F)(F)F)c(NCc3nccnc3N(C)S(C)(=O)=O)n2)cc1 [defactinib]
# How it was run: as §1
# [2] = compound: CNc1nc(-c2ccc3c(N)n[nH]c3c2)cc(N2C[C@@H](C(=O)NC3CCCCC3)CC[C@H]2C)n1
# How it was run: as §1
# encorafenib = compound: COC(=O)N[C@@H](C)CNc1nccc(-c2cn(C(C)C)nc2-c2cc(Cl)cc(NS(C)(=O)=O)c2F)n1 [encorafenib]
# How it was run: as §1
# [3] = compound: COC(=O)[C@H](CCSC)NC(=O)C1=C(C=C(C=C1)NC[C@H](CS)N)C2=CC=CC=C2
# How it was run: as §1
# alisertib = compound: COc1cc(Nc2ncc3c(n2)-c2ccc(Cl)cc2C(c2c(F)cccc2OC)=NC3)ccc1C(=O)O [alisertib]
# How it was run: as §1
# [4] = compound: COc1cc2nc(-c3cc(F)ccc3O)nc(N[C@@H]3CNC[C@H]3C(C)(C)O)c2cc1OC
# How it was run: as §1
# gefitinib = compound: COc1cc2ncnc(Nc3ccc(F)c(Cl)c3)c2cc1OCCCN1CCOCC1 [gefitinib]
# How it was run: as §1
# lapatinib = compound: CS(=O)(=O)CCNCc1ccc(-c2ccc3ncnc(Nc4ccc(OCc5cccc(F)c5)c(Cl)c4)c3c2)o1 [lapatinib]
# How it was run: as §1
# pictilisib = compound: CS(=O)(=O)N1CCN(Cc2cc3nc(-c4cccc5[nH]ncc45)nc(N4CCOCC4)c3s2)CC1 [pictilisib]
# How it was run: as §1
# crizotinib = compound: C[C@@H](Oc1cc(-c2cnn(C3CCNCC3)c2)cnc1N)c1c(Cl)ccc(F)c1Cl [crizotinib]
# How it was run: as §1
# [5] = compound: C[C@H](C1=CC=C(C=C1)C(=O)NC2=C3C=CNC3=NC=C2)N
# How it was run: as §1
# duvelisib = compound: C[C@H](Nc1ncnc2nc[nH]c12)c1cc2cccc(Cl)c2c(=O)n1-c1ccccc1 [duvelisib]
# How it was run: as §1
# gandotinib = compound: Cc1cc(Nc2cc(CN3CCOCC3)c3nc(C)c(Cc4ccc(Cl)cc4F)n3n2)n[nH]1 [gandotinib]
# How it was run: as §1
# tozasertib = compound: Cc1cc(Nc2cc(N3CCN(C)CC3)nc(Sc3ccc(NC(=O)C4CC4)cc3)n2)n[nH]1 [tozasertib]
# How it was run: as §1
# doramapimod = compound: Cc1ccc(-n2nc(C(C)(C)C)cc2NC(=O)Nc2ccc(OCCN3CCOCC3)c3ccccc23)cc1 [doramapimod]
# How it was run: as §1
# bafetinib = compound: Cc1ccc(NC(=O)c2ccc(CN3CC[C@H](N(C)C)C3)c(C(F)(F)F)c2)cc1Nc1nccc(-c2cncnc2)n1 [bafetinib]
# How it was run: as §1
# [6] = compound: Cc1cccc(CC(=O)N2CCc3c2ccc(-c2cn(C)c4ncnc(N)c24)c3F)n1
# How it was run: as §1
Target,log2 fold change (alvocidib),log2 fold change (Tubastatin A),log2 fold change [1],log2 fold change (defactinib),log2 fold change [2],log2 fold change (encorafenib),log2 fold change [3],log2 fold change (alisertib),log2 fold change [4],log2 fold change (gefitinib),log2 fold change (lapatinib),log2 fold change (pictilisib),log2 fold change (crizotinib),log2 fold change [5],log2 fold change (duvelisib),log2 fold change (gandotinib),log2 fold change (tozasertib),log2 fold change (doramapimod),log2 fold change (bafetinib),log2 fold change [6]
SPG7 (UniProt Q9UQ90),inactive: 0.01,inactive: -0.054,inactive: 0.028,inactive: 0.03,inactive: 0.081,inactive: -0.034,inactive: 0.066,inactive: -0.053,inactive: -0.021,inactive: 0.099,inactive: -0.092,inactive: 0.032,inactive: -0.044,inactive: 0.005,inactive: 0.037,inactive: -0.122,inactive: 0.071,inactive: -0.008,inactive: -0.055,inactive: -0.036
SSNA1 (UniProt O43805),inactive: 0.016,inactive: 0.038,inactive: 0.043,inactive: -0.036,inactive: 0.109,inactive: 0.023,inactive: -0.115,inactive: 0.027,inactive: -0.014,inactive: 0.013,inactive: 0.012,inactive: -0.015,inactive: 0.138,inactive: 0.003,inactive: -0.038,inactive: 0.061,inactive: 0.045,inactive: 0.019,inactive: -0.014,inactive: -0.034
SRP54 (UniProt P61011),inactive: -0.023,inactive: 0.01,inactive: -0.011,inactive: 0.035,inactive: 0.023,inactive: 0.067,inactive: 0.011,inactive: 0.055,inactive: 0.043,inactive: -0.025,inactive: 0.021,inactive: -0.021,inactive: 0.019,inactive: -0.035,inactive: -0.024,inactive: 0.039,inactive: -0.004,inactive: 0.041,inactive: -0.029,inactive: 0.04
SPC25 (UniProt Q9HBM1),inactive: -0.015,inactive: 0.009,inactive: 0.024,inactive: -0.017,inactive: -0.014,inactive: 0.034,inactive: 0.014,inactive: -0.008,inactive: -0.043,inactive: -0.011,inactive: 0.029,inactive: 0.029,inactive: 0.001,inactive: -0.01,inactive: -0.021,inactive: -0.007,inactive: -0.013,inactive: -0.005,inactive: -0.031,inactive: 0.011
SSB (UniProt P05455),inactive: 0.057,inactive: 0.018,inactive: -0.02,inactive: -0.019,inactive: -0.015,inactive: -0.029,inactive: 0.022,inactive: -0.003,inactive: 0.002,inactive: -0.008,inactive: -0.024,inactive: 0.015,inactive: 0.046,inactive: 0.05,inactive: -0.01,inactive: -0.03,inactive: 0.009,inactive: -0.032,inactive: 0.017,inactive: -0.036
SRRM2 (UniProt Q9UQ35),inactive: -0.124,inactive: 0.03,inactive: 0.011,inactive: -0.027,inactive: 0.064,inactive: 0.053,inactive: 0.007,inactive: 0.002,inactive: 0.014,inactive: -0.009,inactive: 0.042,inactive: 0.004,inactive: 0.013,inactive: -0.104,inactive: 0.022,inactive: 0.02,inactive: -0.012,inactive: 0.034,inactive: -0.02,inactive: 0.029
SPIN1 (UniProt Q9Y657),inactive: -0.072,inactive: 0.018,inactive: -0.022,inactive: 0.048,inactive: 0.021,inactive: 0.04,inactive: 0.022,inactive: 0.144,inactive: 0.092,inactive: -0.082,inactive: -0.002,inactive: -0.008,inactive: -0.115,inactive: -0.012,inactive: 0.081,inactive: 0.041,inactive: -0.005,inactive: 0.097,inactive: 0.004,inactive: 0.049
SRPK1 (UniProt Q96SB4),active: 0.286,inactive: -0.062,inactive: 0.189,inactive: 0.106,inactive: 0.008,inactive: -0.029,inactive: 0.102,inactive: 0.006,inactive: 0.015,inactive: 0.018,inactive: -0.006,inactive: 0.008,inactive: -0.089,inactive: 0.1,inactive: 0.025,inactive: 0.17,inactive: -0.016,inactive: 0.233,inactive: -0.028,inactive: -0.054
SREK1 isoform 2 (UniProt Q8WXA9),inactive: -0.064,inactive: 0.011,inactive: -0.02,inactive: -0.024,inactive: 0.031,inactive: -0.005,inactive: 0.005,inactive: 0.023,inactive: -0.023,inactive: -0.044,inactive: 0.009,inactive: -0.016,inactive: -0.008,inactive: -0.059,inactive: -0.016,inactive: -0.048,inactive: -0.032,inactive: 0.006,inactive: 0.015,inactive: 0.041
STIM1 (UniProt Q13586),inactive: 0.008,inactive: -0.056,inactive: -0.041,inactive: -0.018,inactive: 0.024,inactive: 0.003,inactive: -0.016,inactive: 0.008,inactive: -0.106,inactive: -0.013,inactive: -0.056,inactive: -0.028,inactive: -0.053,inactive: 0.145,inactive: -0.007,inactive: -0.095,inactive: 0.032,inactive: 0.044,inactive: -0.056,inactive: -0.037
STARD7 (UniProt Q9NQZ5),inactive: -0.019,inactive: 0.161,inactive: 0.052,inactive: 0.001,inactive: 0.061,inactive: -0.021,inactive: -0.069,inactive: -0.024,inactive: -0.026,inactive: -0.016,inactive: -0.023,inactive: 0.025,inactive: -0.096,inactive: 0.023,inactive: 0.031,inactive: -0.024,inactive: 0.025,inactive: -0.017,inactive: -0.084,inactive: -0.037
SPCS3 (UniProt P61009),inactive: 0,inactive: 0.018,inactive: -0.066,inactive: 0.025,inactive: -0.111,inactive: 0.035,inactive: -0.008,inactive: -0.043,inactive: -0.039,inactive: 0.083,inactive: -0.009,inactive: -0.014,inactive: 0.018,inactive: 0.009,inactive: -0.019,inactive: -0.116,inactive: 0.049,inactive: 0.002,inactive: 0.026,inactive: -0.031
SRGAP2 (UniProt O75044),inactive: -0.012,inactive: -0.071,inactive: -0.017,inactive: -0.014,inactive: 0.028,inactive: -0.023,inactive: 0.079,inactive: -0.001,inactive: -0.003,inactive: -0.018,inactive: -0.024,inactive: 0.008,inactive: 0.015,inactive: -0.003,inactive: 0.009,inactive: -0.021,inactive: 0.035,inactive: -0.04,inactive: -0.039,inactive: 0.032
SPHK1 isoform 2 (UniProt Q9NYA1),inactive: 0.023,inactive: -0.114,inactive: 0.046,inactive: 0.076,inactive: -0.175,inactive: 0.018,inactive: 0.006,inactive: 0.045,inactive: 0.022,inactive: 0.069,inactive: -0.039,inactive: 0.001,inactive: -0.018,inactive: -0.028,inactive: 0.013,inactive: 0.033,inactive: 0.122,inactive: 0.073,inactive: -0.007,inactive: -0.041
STAT3 isoform 2 (UniProt P40763),inactive: 0.006,inactive: -0.001,inactive: 0.02,inactive: -0.005,inactive: -0.019,inactive: 0.022,inactive: 0.01,inactive: 0.007,inactive: 0.008,inactive: 0.019,inactive: -0.008,inactive: 0.025,inactive: -0.027,inactive: 0.043,inactive: 0,inactive: -0.049,inactive: -0.018,inactive: -0.003,inactive: -0.03,inactive: -0.01
SRSF6 (UniProt Q13247),inactive: 0.076,inactive: 0.022,inactive: -0.026,inactive: 0.044,inactive: -0.01,inactive: -0.001,inactive: -0.016,inactive: -0.1,inactive: 0.004,inactive: -0.026,inactive: 0.006,inactive: 0.017,inactive: 0.057,inactive: 0.149,inactive: 0.093,inactive: -0.143,inactive: 0.014,inactive: 0.021,inactive: -0.098,inactive: -0.119

# For reference, some entries already given:
Target,log2 fold change (alvocidib),log2 fold change (Tubastatin A),log2 fold change [1],log2 fold change (defactinib),log2 fold change [2],log2 fold change (encorafenib),log2 fold change [3],log2 fold change (alisertib),log2 fold change [4],log2 fold change (gefitinib),log2 fold change (lapatinib),log2 fold change (pictilisib),log2 fold change (crizotinib),log2 fold change [5],log2 fold change (duvelisib),log2 fold change (gandotinib),log2 fold change (tozasertib),log2 fold change (doramapimod),log2 fold change (bafetinib),log2 fold change [6]
SPG7 (UniProt Q9UQ90),inactive: 0.01,inactive: -0.054,inactive: 0.028,inactive: 0.03,inactive: 0.081,inactive: -0.034,inactive: 0.066,inactive: -0.053,inactive: -0.021,inactive: 0.099,inactive: -0.092,inactive: 0.032,inactive: -0.044,inactive: 0.005,inactive: 0.037,inactive: -0.122,inactive: 0.071,inactive: -0.008,inactive: -0.055,inactive: -0.036
SSNA1 (UniProt O43805),inactive: 0.016,inactive: 0.038,inactive: 0.043,inactive: -0.036,inactive: 0.109,inactive: 0.023,inactive: -0.115,inactive: 0.027,inactive: -0.014,inactive: 0.013,inactive: 0.012,inactive: -0.015,inactive: 0.138,inactive: 0.003,inactive: -0.038,inactive: 0.061,inactive: 0.045,inactive: 0.019,inactive: -0.014,inactive: -0.034
